Experimental data reported in patent US12649754B2, “Prodrugs of 2-(3,5-dichloro-1-methyl-indazol-4-yl)-1-[(1S,3R)-3-(hydroxymethyl)-5-(1-hydroxy-1-methyl-ethyl)-1-methyl-3,4-dihydro-1H-isoquinolin-2-yl]ethanone” (UCB Biopharma SRL, priority 2020, dated 2026).
Some entries share one result that the patent states for a list of compounds.

Assay: Solubility by shake flask method (24 h, HPLC)
Assay type: physicochemical
Conditions: irrespective of the media used
Experimental: The solubility of compounds of formula (Ia) obtained according to Example 2.12. and compounds of formula (II-A), (II-Ax) and (II-B) obtained respectively according to Examples 3.2. and 4.2., was determined in different media while using the shake flask method. An excess of solids, for (II-Ax) and (II-B) equivalent to a concentration of compound of formula (I) of 5 mg/mL, and for (II-A) equivalent to a concentration of compound of formula (I) of 1 mg/mL was suspended in 5 mL of buffer/biorelevant media as specifically described in Table 1 and incubated in a sealed glass vial (10 mL) for 24 h at room temperature or 37° C. (as indicated below) in a climatic chamber equipped with a rotary mixer. The 24 h time point was assumed to have reached solubility, at which time the suspension was filtered through a 0.45-μm ultra free filter (Merck Millipore) and the drug content was determined by HPLC. The solubility of compounds (Ia), (II-A), (II-Ax) and (II-B) was determined in triplicate (n=3) and mean value calculated.
The media tested are respectively water, phosphate buffer, FasSGF, FASSIF-V2 and FeSSIF-V2. FasSG is fasted condition gastric fluid. FasSGF is prepared at pH 1.6 and contains 0.08 mM Taurocholate, 0.02 mM phospholipids, 34 mM sodium and 59 mM chloride. FaSSIF-V2 and FeSSIF-V2 are Fasted and Fed State Biorelevant Media, respectively. FaSSIF-V2 is prepared at pH 6.5 and contains 3 mM Taurocholate, 0.2 mM Phospholipids, 106 mM Sodium, 69 mM Chloride and 19 mM Maleic acid. FeSSIF-V2 is prepared at pH 5.8 and contains 10 mM Taurocholate, 2 mM Phospholipids, 0.8 mM Oleate, 5 mM Glycerol monoleate, 218 mM Sodium, 125 mM Chloride and 55 mM Maleic acid.

Question: With C[C@H]1c2cccc(C(C)(C)O)c2C[C@H](COP(=O)(O)O)N1C(=O)Cc1c(Cl)ccc2c1c(Cl)nn2C [(II-A), [(1S,3R)-2-[2-(3,5-dichloro-1-methyl-indazol-4-yl)acetyl]-5-(1-hydroxy-1-methyl-ethyl)-1-methyl-3,4-dihydro-1H-isoquinolin-3-yl]methyl dihydrogen phosphate] as the compound, how does the “increase in solubility compared to compound of formula (Ia)” value (“increase in solubility” below) read?
Answer: ≥ 20 fold

Question: With C[C@H]1c2cccc(C(C)(C)O)c2C[C@H](COP(=O)(O)O)N1C(=O)Cc1c(Cl)ccc2c1c(Cl)nn2C [(II-Ax), [(1S,3R)-2-[2-(3,5-dichloro-1-methyl-indazol-4-yl)acetyl]-5-(1-hydroxy-1-methyl-ethyl)-1-methyl-3,4-dihydro-1H-isoquinolin-3-yl]methyl dihydrogen phosphate] as the compound, how does the “increase in solubility” value read?
Answer: ≥ 20 fold

Question: Which “increase in solubility” value does the source give for CC(C)[C@H](N)C(=O)OC[C@H]1Cc2c(cccc2C(C)(C)O)[C@H](C)N1C(=O)Cc1c(Cl)ccc2c1c(Cl)nn2C [(II-B), [(1S,3R)-2-[2-(3,5-dichloro-1-methyl-indazol-4-yl)acetyl]-5-(1-hydroxy-1-methyl-ethyl)-1-methyl-3,4-dihydro-1H-isoquinolin-3-yl]methyl (2S)-2-amino-3-methyl-butanoate] here?
Answer: ≥ 20 fold
